Results on one substance are retold here after PMC3041740, “Interplay between HIV Entry and Transportin-SR2 Dependency” (Retrovirology, 2011).

By UniProt entry, the sequences of proteins in these tests, tags left out.
UniProt P09471: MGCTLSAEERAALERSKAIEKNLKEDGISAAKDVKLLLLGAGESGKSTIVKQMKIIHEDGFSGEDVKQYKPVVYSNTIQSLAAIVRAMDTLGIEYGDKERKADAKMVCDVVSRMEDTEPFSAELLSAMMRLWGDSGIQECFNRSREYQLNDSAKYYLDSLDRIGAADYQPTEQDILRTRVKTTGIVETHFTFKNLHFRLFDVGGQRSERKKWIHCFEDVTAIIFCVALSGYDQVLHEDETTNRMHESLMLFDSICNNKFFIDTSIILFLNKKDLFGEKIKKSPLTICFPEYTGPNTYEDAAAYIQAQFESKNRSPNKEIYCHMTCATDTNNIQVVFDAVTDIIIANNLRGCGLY

No constants are given. Whether binding was seen depends on the method and setting. Sequences can lack the tags named with a protein.

The target in the assay is T1, GST-TRN-SR2 (transportin-SR2) (UniProt Q9Y5L0).
T1 sequence: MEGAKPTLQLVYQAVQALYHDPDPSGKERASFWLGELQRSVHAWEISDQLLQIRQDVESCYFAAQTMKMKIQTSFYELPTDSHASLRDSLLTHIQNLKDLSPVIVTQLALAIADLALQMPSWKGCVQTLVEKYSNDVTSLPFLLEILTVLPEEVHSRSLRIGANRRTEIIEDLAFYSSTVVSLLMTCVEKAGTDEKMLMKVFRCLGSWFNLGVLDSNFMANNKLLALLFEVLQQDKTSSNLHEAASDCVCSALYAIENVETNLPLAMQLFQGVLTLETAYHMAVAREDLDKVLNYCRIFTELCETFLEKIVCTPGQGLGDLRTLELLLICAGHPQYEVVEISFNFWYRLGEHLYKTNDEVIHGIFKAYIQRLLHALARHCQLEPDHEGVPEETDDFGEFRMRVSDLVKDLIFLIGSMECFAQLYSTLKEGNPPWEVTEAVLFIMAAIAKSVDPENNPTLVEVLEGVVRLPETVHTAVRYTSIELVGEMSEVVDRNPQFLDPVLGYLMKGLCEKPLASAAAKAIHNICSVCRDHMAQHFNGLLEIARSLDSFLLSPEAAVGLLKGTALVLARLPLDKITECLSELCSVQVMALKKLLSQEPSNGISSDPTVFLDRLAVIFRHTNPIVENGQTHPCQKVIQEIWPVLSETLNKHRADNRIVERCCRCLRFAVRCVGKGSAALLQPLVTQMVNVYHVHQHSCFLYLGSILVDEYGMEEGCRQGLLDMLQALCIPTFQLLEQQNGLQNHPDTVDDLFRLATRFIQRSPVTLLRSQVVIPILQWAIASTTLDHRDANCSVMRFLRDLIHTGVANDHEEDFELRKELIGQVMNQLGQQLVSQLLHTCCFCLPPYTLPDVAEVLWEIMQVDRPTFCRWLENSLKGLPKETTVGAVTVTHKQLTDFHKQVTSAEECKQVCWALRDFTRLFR
Nature of the assay: AlphaScreen or HTRF; 10 nM GST-TRN-SR2 titrated with 1 to 150 nM His6-tagged protein; glutathione donor and nickel-chelate acceptor beads; 25 mM Tris/HCl pH 7.4, 150 mM NaCl, 1 mM MgCl2, 0.1% Tween-20, 0.1% BSA; 1 h at 4°C, then 1.5 h at room temperature with beads; apparent Kd; both purified. (In general: In Alpha technology, singlet oxygen from a donor bead excites a nearby acceptor bead.)

Turning to “His6-tagged human heterotrimeric G protein α oA subunit (from UniProt P09471 1-354)”, the binding result is listed as “no binding (tested: 1 to 150 nM)”.
